Laboratory results: PubChem BioAssay AID686938 (Drosophila RNAi Screening Center, 2013)
Assay: 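Looking for CRAC channel components and the factors controlling them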 (primary screen). System: Drosophila S2R+ cells. Knock-down reagent: long dsRNA against Drosophila genes, about 0.25 µg dsRNA per well, roughly 10,000 cells. Duration: 5 days of knock-down before the calcium assay. Challenge: thapsigargin (SERCA pump blocker) to empty calcium stores; entry signal taken 4 min after adding it. Read-out: 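Per-well fluo-4 fluorescence in two replicates, unnormalised, measured in resting cells and 4 min after store depletion by the SERCA blocker thapsigargin; ratio of the two present in few wells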. Scale: calcium entry signal: higher = stronger calcium signal after store depletion; resting calcium signal: higher = higher resting calcium signal. Hit rule: 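Called when the plate z-score of the entry-to-rest ratio, mean of duplicates, falls below −3; wells with low overall dye signal (Fmax z below −2) or more than five off-targets excluded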. Meaning of the calls: active = strongly reduced calcium entry; inactive = no strong reduction.
The screen tested about 23,000 reagents; this is an unselected part of those that have a named target and a result. In the full data, 75 (0.33%) were called active. 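Raw plate signals without normalisation; calls rest on plate z-scores that were not deposited; ratio present for only 364 wells.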 Unmarked entries are inactive. The numbers tell different reagents against one gene apart. No sequences are given here. Not stated in the record: the dose of the treatment.

{"target": "CG4324", "reagent": 1, "calcium entry signal, replicate 1 (fluorescence units)": 2.74e7, "calcium entry signal, replicate 2 (fluorescence units)": 3.68e7, "resting calcium signal, replicate 1 (fluorescence units)": 1.56e7, "resting calcium signal, replicate 2 (fluorescence units)": 1.74e7}
{"target": "CG5866", "reagent": 1, "calcium entry signal, replicate 1 (fluorescence units)": 3.69e7, "calcium entry signal, replicate 2 (fluorescence units)": 5.95e7, "resting calcium signal, replicate 1 (fluorescence units)": 1.95e7, "resting calcium signal, replicate 2 (fluorescence units)": 7.06e7}
{"target": "Spn88Eb (Serpin 88Eb)", "reagent": 1, "calcium entry signal, replicate 1 (fluorescence units)": 3.68e7, "calcium entry signal, replicate 2 (fluorescence units)": 5.02e7, "resting calcium signal, replicate 1 (fluorescence units)": 1.68e7, "resting calcium signal, replicate 2 (fluorescence units)": 2.19e7}
{"target": "PPO1 (Prophenoloxidase 1)", "reagent": 1, "calcium entry signal, replicate 1 (fluorescence units)": 3.50e7, "calcium entry signal, replicate 2 (fluorescence units)": 2.95e7, "resting calcium signal, replicate 1 (fluorescence units)": 1.59e7, "resting calcium signal, replicate 2 (fluorescence units)": 1.53e7}
{"target": "CG5937", "reagent": 1, "calcium entry signal, replicate 1 (fluorescence units)": 3.42e7, "calcium entry signal, replicate 2 (fluorescence units)": 4.62e7, "resting calcium signal, replicate 1 (fluorescence units)": 1.80e7, "resting calcium signal, replicate 2 (fluorescence units)": 1.94e7}
{"target": "Su(var)3-3 (Suppressor of variegation 3-3)", "reagent": 1, "calcium entry signal, replicate 1 (fluorescence units)": 2.83e7, "calcium entry signal, replicate 2 (fluorescence units)": 4.07e7, "resting calcium signal, replicate 1 (fluorescence units)": 1.45e7, "resting calcium signal, replicate 2 (fluorescence units)": 2.89e7}
{"target": "CG15594", "reagent": 1, "calcium entry signal, replicate 1 (fluorescence units)": 3.91e7, "calcium entry signal, replicate 2 (fluorescence units)": 2.96e7, "resting calcium signal, replicate 1 (fluorescence units)": 1.87e7, "resting calcium signal, replicate 2 (fluorescence units)": 1.32e7}
{"target": "cactin", "reagent": 1, "calcium entry signal, replicate 1 (fluorescence units)": 2.48e7, "calcium entry signal, replicate 2 (fluorescence units)": 2.43e7, "resting calcium signal, replicate 1 (fluorescence units)": 1.55e7, "resting calcium signal, replicate 2 (fluorescence units)": 1.38e7}
{"target": "wun2 (wunen-2)", "reagent": 1, "calcium entry signal, replicate 1 (fluorescence units)": 3.96e7, "calcium entry signal, replicate 2 (fluorescence units)": 4.10e7, "resting calcium signal, replicate 1 (fluorescence units)": 1.85e7, "resting calcium signal, replicate 2 (fluorescence units)": 1.67e7}
{"target": "CG14316", "reagent": 1, "calcium entry signal, replicate 1 (fluorescence units)": 3.61e7, "calcium entry signal, replicate 2 (fluorescence units)": 3.88e7, "resting calcium signal, replicate 1 (fluorescence units)": 4.38e7, "resting calcium signal, replicate 2 (fluorescence units)": 1.65e7}
{"target": "CG32548", "reagent": 1, "calcium entry signal, replicate 1 (fluorescence units)": 3.95e7, "calcium entry signal, replicate 2 (fluorescence units)": 3.56e7, "resting calcium signal, replicate 1 (fluorescence units)": 1.95e7, "resting calcium signal, replicate 2 (fluorescence units)": 1.59e7}
{"target": "CG32548", "reagent": 2, "calcium entry signal, replicate 1 (fluorescence units)": 5.34e7, "calcium entry signal, replicate 2 (fluorescence units)": 4.69e7, "resting calcium signal, replicate 1 (fluorescence units)": 2.32e7, "resting calcium signal, replicate 2 (fluorescence units)": 2.10e7}

Reformatted: results already given
target,reagent,"calcium entry signal, replicate 1 (fluorescence units)","calcium entry signal, replicate 2 (fluorescence units)","resting calcium signal, replicate 1 (fluorescence units)","resting calcium signal, replicate 2 (fluorescence units)"
CG5866,1,3.69e7,5.95e7,1.95e7,7.06e7
Spn88Eb (Serpin 88Eb),1,3.68e7,5.02e7,1.68e7,2.19e7
